Results published in paper PMC4197335 (Cancer Cell, 2014).
Some peptides are written in HELM: one residue between dots, names in brackets for other building blocks, links after the first $.

assay: general procedure: Fmoc solid-phase peptide synthesis; settings: whole synthesis, 214 nm

| Substance | final purity (method not given) [%] |
| --- | --- |
| 2CI-z-YERF-NH2 | 96 |
| 3-hydroxy-4-methoxy-benzyl-YERF-NH2 | 95 |
| Ac-WDHW-NH2 | > 99 |
| Ac-WDKF-NH2 | 96 |
| Ac-WDRF-NH2 | 97 |
| Ac-WEHF-NH2 | 96 |
| Ac-YDHW-NH2 | 95 |
| Ac-YDKF-NH2 | 95 |
| Ac-YDRF-NH2 | 95 |
| Ac-YDRW-NH2 | 95 |
| Ac-YEHF-NH2 | 95 |
| Ac-YEKW-NH2 | > 99 |
| Ac-YERW-NH2 | 96 |
| PEPTIDE1{[2ClZ].[dY].[dD].[dH].[dF].[am]}$$$$V2.0 | 96 |
| PEPTIDE1{[2ClZ].[dY].[dD].[dH].[dQ].[am]}$$$$V2.0 | 97 |
| PEPTIDE1{[Bz].[dY].[dD].[dH].[dF].[am]}$$$$V2.0 | 97 |
| PEPTIDE1{[Bz].[dY].[dD].[dH].[dQ].[am]}$$$$V2.0 | 98 |
| PEPTIDE1{[Bz].[dY].[dE].[dR].[dF].[am]}$$$$V2.0 | 97 |
| PEPTIDE1{[Myr].[dY].[dD].[dH].[dF].[am]}$$$$V2.0 | 95 |

| Substance | final purity (method not given) [%] |
| --- | --- |
| PEPTIDE1{[Myr].[dY].[dD].[dH].[dQ].[am]}$$$$V2.0 | 97 |
| PEPTIDE1{[Myr].[dY].[dE].[dR].[dF].[am]}$$$$V2.0 | 97 |
| PEPTIDE1{[ac].W.D.H.F.[am]}$$$$V2.0 | 97 |
| PEPTIDE1{[ac].W.D.K.W.[am]}$$$$V2.0 | 97 |
| PEPTIDE1{[ac].W.D.R.W.[am]}$$$$V2.0 | 97 |
| PEPTIDE1{[ac].W.E.H.W.[am]}$$$$V2.0 | 97 |
| PEPTIDE1{[ac].W.E.K.F.[am]}$$$$V2.0 | 97 |
| PEPTIDE1{[ac].W.E.K.W.[am]}$$$$V2.0 | 97 |
| PEPTIDE1{[ac].W.E.R.F.[am]}$$$$V2.0 | 95 |
| PEPTIDE1{[ac].W.E.R.W.[am]}$$$$V2.0 | 97 |
| PEPTIDE1{[ac].Y.D.H.F.[am]}$$$$V2.0 | 97 |
| PEPTIDE1{[ac].Y.D.K.W.[am]}$$$$V2.0 | 96 |
| PEPTIDE1{[ac].Y.E.H.W.[am]}$$$$V2.0 | 97 |
| PEPTIDE1{[ac].Y.E.K.F.[am]}$$$$V2.0 | 95 |
| PEPTIDE1{[ac].Y.E.R.F.[am]}$$$$V2.0 | 96 |
| z-YDHF-NH2 (z-DTP1) | 97 |
| z-YDHQ-NH2 (z-DNC) | 96 |
| z-YERF-NH2 (z-DTP2) | 97 |
